Test results: patent US20210403547A1
Results are given in words; binding and its absence hold for the method and conditions named. Some results given as binding are weak or reduced against the parent protein; the word gives no strength.

Molecular target: Mouse Epigen (mouse (Mus musculus)) (UniProt Q924X1)
Experiment: SPR, 25 C

B1: Antibody III (antibody, mouse IgG1, kappa, V domains shown)
VH: QVQLQQSGPELVKPGASVKISCKASGYTFTDAYINWVKQRPGQGLEWIGWIWPGPVITYYNPKFKGKATLTVDKSSSTAYMLLSSLTSEDSAFYFCARREVLSPFAYWGQGTLVTVSA
VL: DVLMTQTPLSLPVSLGDQASISCRSSQSIVHSTGNTYLEWYLQKPGQSPKLLIYKVSNRFSGVPDRFSGSGSGTDFTLKISRVEAEDLGVYYCFHGTHVPYTFGGGTKLEIKR
With B1 as the binder, how does the binding read?
Its binding is “binds”.
